Assay results reported in publication doi:10.1101/2024.05.24.595750.
These are yes or no findings as the source states them, for the method shown. In cells and extracts the contact can be indirect. Here binding means that the protein was enriched with, or labelled near, the bait; the list need not be complete. Tags and fused reporters may be left off the sequences shown.

Target: T1, C-terminal Flag-tagged wild-type human full-length eNOS (human) (UniProt P29474)
T1 sequence: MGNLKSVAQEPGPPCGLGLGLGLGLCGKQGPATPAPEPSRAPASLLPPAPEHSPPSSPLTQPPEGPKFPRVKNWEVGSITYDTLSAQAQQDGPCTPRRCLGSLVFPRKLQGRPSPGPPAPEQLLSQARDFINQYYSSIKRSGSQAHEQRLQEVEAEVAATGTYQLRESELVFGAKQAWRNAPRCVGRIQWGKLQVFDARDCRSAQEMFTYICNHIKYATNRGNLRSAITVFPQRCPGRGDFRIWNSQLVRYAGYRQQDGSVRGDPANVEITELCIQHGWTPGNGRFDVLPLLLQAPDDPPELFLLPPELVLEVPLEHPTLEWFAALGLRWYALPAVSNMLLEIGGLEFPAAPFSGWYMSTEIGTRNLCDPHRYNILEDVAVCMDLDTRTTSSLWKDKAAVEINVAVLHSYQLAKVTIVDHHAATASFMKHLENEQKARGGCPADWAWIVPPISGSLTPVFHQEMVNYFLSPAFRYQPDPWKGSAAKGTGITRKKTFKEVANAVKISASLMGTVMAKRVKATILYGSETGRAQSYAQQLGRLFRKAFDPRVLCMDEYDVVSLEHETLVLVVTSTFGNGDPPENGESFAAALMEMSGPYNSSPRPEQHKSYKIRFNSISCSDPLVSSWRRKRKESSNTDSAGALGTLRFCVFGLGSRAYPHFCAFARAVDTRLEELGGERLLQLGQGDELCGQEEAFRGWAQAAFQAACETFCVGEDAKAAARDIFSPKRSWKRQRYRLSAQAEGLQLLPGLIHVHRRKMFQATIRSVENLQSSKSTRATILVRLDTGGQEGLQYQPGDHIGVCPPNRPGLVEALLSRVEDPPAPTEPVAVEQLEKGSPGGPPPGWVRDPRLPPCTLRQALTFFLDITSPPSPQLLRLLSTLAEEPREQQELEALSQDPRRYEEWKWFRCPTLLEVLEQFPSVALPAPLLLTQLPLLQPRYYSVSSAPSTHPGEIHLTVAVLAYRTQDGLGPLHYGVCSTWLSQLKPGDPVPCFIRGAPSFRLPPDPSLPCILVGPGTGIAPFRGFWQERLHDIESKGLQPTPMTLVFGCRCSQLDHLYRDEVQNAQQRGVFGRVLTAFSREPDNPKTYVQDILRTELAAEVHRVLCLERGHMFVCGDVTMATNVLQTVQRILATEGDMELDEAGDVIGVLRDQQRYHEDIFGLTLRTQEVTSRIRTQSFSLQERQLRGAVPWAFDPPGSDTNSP
Assay: affinity purification with mass spectrometry

binding: binds
B1: double-stranded RNA-specific adenosine deaminase (ADAR1), human, endogenous (enzyme, UniProt P55265 1-1226)
chain: MNPRQGYSLSGYYTHPFQGYEHRQLRYQQPGPGSSPSSFLLKQIEFLKGQLPEAPVIGKQTPSLPPSLPGLRPRFPVLLASSTRGRQVDIRGVPRGVHLRSQGLQRGFQHPSPRGRSLPQRGVDCLSSHFQELSIYQDQEQRILKFLEELGEGKATTAHDLSGKLGTPKKEINRVLYSLAKKGKLQKEAGTPPLWKIAVSTQAWNQHSGVVRPDGHSQGAPNSDPSLEPEDRNSTSVSEDLLEPFIAVSAQAWNQHSGVVRPDSHSQGSPNSDPGLEPEDSNSTSALEDPLEFLDMAEIKEKICDYLFNVSDSSALNLAKNIGLTKARDINAVLIDMERQGDVYRQGTTPPIWHLTDKKRERMQIKRNTNSVPETAPAAIPETKRNAEFLTCNIPTSNASNNMVTTEKVENGQEPVIKLENRQEARPEPARLKPPVHYNGPSKAGYVDFENGQWATDDIPDDLNSIRAAPGEFRAIMEMPSFYSHGLPRCSPYKKLTECQLKNPISGLLEYAQFASQTCEFNMIEQSGPPHEPRFKFQVVINGREFPPAEAGSKKVAKQDAAMKAMTILLEEAKAKDSGKSEESSHYSTEKESEKTAESQTPTPSATSFFSGKSPVTTLLECMHKLGNSCEFRLLSKEGPAHEPKFQYCVAVGAQTFPSVSAPSKKVAKQMAAEEAMKALHGEATNSMASDNQPEGMISESLDNLESMMPNKVRKIGELVRYLNTNPVGGLLEYARSHGFAAEFKLVDQSGPPHEPKFVYQAKVGGRWFPAVCAHSKKQGKQEAADAALRVLIGENEKAERMGFTEVTPVTGASLRRTMLLLSRSPEAQPKTLPLTGSTFHDQIAMLSHRCFNTLTNSFQPSLLGRKILAAIIMKKDSEDMGVVVSLGTGNRCVKGDSLSLKGETVNDCHAEIISRRGFIRFLYSELMKYNSQTAKDSIFEPAKGGEKLQIKKTVSFHLYISTAPCGDGALFDKSCSDRAMESTESRHYPVFENPKQGKLRTKVENGEGTIPVESSDIVPTWDGIRLGERLRTMSCSDKILRWNVLGLQGALLTHFLQPIYLKSVTLGYLFSQGHLTRAICCRVTRDGSAFEDGLRHPFIVNHPKVGRVSIYDSKRQSGKTKETSVNWCLADGYDLEILDGTRGTVDGPRNELSRVSKKNIFLLFKKLCSFRYRRDLLRLSYGEAKKAARDYETAKNYFKKGLKDMGYGNWISKPQEEKNFYLCPV
